The text below walks through data of PMC5768801, “The PII signaling protein from red algae represents an evolutionary link between cyanobacterial and Chloroplastida PII proteins” (Scientific Reports, 2018).

The test system of this data set is CrPII. Nature of the data set: ITC binding of small effector molecules to green algal CrPII. The arrangement: species or system Chlamydomonas reinhardtii. Here is the method: To gain additional insights into the ligand binding properties of PpPII in comparison to cyanobacterial and chloroplastid PII proteins, isothermal titration calorimetry (ITC) experiments were performed using highly purified Strep-tagged or His-tagged recombinant PpPII, SyPII, CrPII, and PhyscoPII proteins (Supplementary Fig. S1) with different protein/ligand/ concentrations to determine the best fitting conditions of the binding model. The titration experiments were repeated with different protein preparations to confirm the reproducibility of the results. The raw isothermal data were fitted into one-binding site as well as three-sequential binding sites to define the best fitting model. Fitting using a one binding site model states an average Kd value for all available binding sites and the mean of the stoichiometry of bound ligands.
The ITC experiments were done using a VP-ITC microcalorimeter (MicroCal, LCC). All details for determination of binding constants for small effector molecules using ITC are fully described in the supplementary information. Heat isotherms of the dilution of the ligand in the cell buffer were collected in a blank run for each experiment in the absence of protein. The binding isotherms were calculated from received data and fitted to one-site and three-sequential binding sites models using the MicroCal ORIGIN software (Northampton) as described. All titrations were performed in duplicates with different purification batches of recombinant PII proteins. The association binding constant (Ka) was generated from the software by de-convolution and curve fitting. For calculation of dissociation constant (Kd), the Ka value was inversed.
Supplementary Information […]
Determination of Binding Constants for Small Effector Molecules using Isothermal […]
The binding of the small effector molecules to the recombinant PII proteins was tested using isothermal titration calarmity (ITC); VP-ITC microcalorimeter (MicroCal). All titrations were performed on 20°C using […] injection syringe with injection 6 µl or 10 µl of the tested ligands for 45 or 29 times, respectively into the cell (1.4 ml) with continuous stirring at 155 rpm. All tested ligands were high grade, prepared freshly in the same buffer of the protein and purchased from Sigma-Aldrich. Heat isotherms for the dilution of the ligand in the cell buffer were collected in a blank run in the absence of protein. The received calorimetric data were analyzed using MicroCal Origin software and fitted into one-site and three-sequential binding sites models, as indicated by the manufacture for calculation of binding isotherms9. For data reproducibility, the titrations were performed in duplicates with different purification batches of recombinant PII proteins. The association binding constant (Ka) was generated from the software by de-convolution and curve fitting. For calculation of dissociation constant (Kd), the Ka value was inversed. […]

Regarding `Nc1ncnc2c1ncn2[C@@H]1O[C@H](COP(=O)(O)OP(=O)(O)O)[C@@H](O)[C@H]1O` [ADP], the “N, number of calculated binding sites (one-site binding model)” value (from here on “N, number of calculated binding sites”) is “No binding” (in presence 2-OG (2 mM)) and “No binding” (titrant alone).

In the case of `O=C(O)CCC(=O)C(=O)O` [2-OG, 2-oxoglutarate], the “N, number of calculated binding sites” value by setting is: (in presence ADP (2 mM)) “No binding”; (in presence ATP (2 mM)) 2.6.

On to `Nc1ncnc2c1ncn2[C@@H]1O[C@H](COP(=O)(O)OP(=O)(O)OP(=O)(O)O)[C@@H](O)[C@H]1O` [ATP], for which the “N, number of calculated binding sites” value by setting is: (in presence 2-OG (2 mM)) 2.6; (titrant alone) “No binding”.
